Results deposited as PubChem BioAssay AID1224829 (NIAID, 2016).

Screen: 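Genes needed for LPS-driven NF-kappaB p65 nuclear entry in mouse macrophages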 (follow-up of hits)
Cell system: mouse RAW264.7 G9 macrophage reporter cells
Knock-down reagent: single siRNA against mouse genes, 100 nM
Time to read-out: 2 days of siRNA knock-down, then 40 min of LPS before fixing
Conditions: LPS (Salmonella minnesota R595) at 10 ng/ml
Measurement: 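Imaging of GFP-p65 after 40 min of LPS; nuclear over perinuclear ring intensity ratio, scaled to plate median and non-targeting control wells, given as z-score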
Scale: p65 translocation z-score: higher = more nuclear NF-kappaB p65 after LPS
Active means: 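Active means the replicate-mean z-score lies beyond plus or minus 2, in either direction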
Meaning of the calls: active = changed p65 translocation (either direction); inactive = no clear change
Shown is a random part of about 3,800 reagents. 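Calls cover raised and lowered translocation; gene median uses one vendor's three siRNAs; qiagen siRNAs acted more weakly than ambion siRNAs.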 Unmarked entries are inactive. Reagents against one gene are numbered here. Further read-outs or replicates are left out here.

Gene	siRNA no.	siRNA vendor or control pool	p65 translocation z-score, replicate mean	p65 translocation z-score, replicate 1
Dennd1c (DENN domain containing 1C)	1	ambion single siRNA	-5.41 (active)	-6.88
Dennd1c (DENN domain containing 1C)	2	ambion single siRNA	-1.93	-1.64
Dennd1c (DENN domain containing 1C)	3	ambion single siRNA	-2.29 (active)	-2.43
Dennd1c (DENN domain containing 1C)	4	qiagen single siRNA	0.454	-0.691
Dennd1c (DENN domain containing 1C)	5	qiagen single siRNA	-0.994	-2.6
Dennd1c (DENN domain containing 1C)	6	qiagen single siRNA	-1.13	-1.11
Trhr (thyrotropin releasing hormone receptor)	1	ambion single siRNA	1.51	2.46
Trhr (thyrotropin releasing hormone receptor)	2	ambion single siRNA	-3.77 (active)	-4.57
Trhr (thyrotropin releasing hormone receptor)	3	ambion single siRNA	-3.76 (active)	-1.97
Trhr (thyrotropin releasing hormone receptor)	4	qiagen single siRNA	0.486	0.469
Trhr (thyrotropin releasing hormone receptor)	5	qiagen single siRNA	-2.37 (active)	-1.43
Trhr (thyrotropin releasing hormone receptor)	6	qiagen single siRNA	-0.767	-0.38
Irx3 (Iroquois related homeobox 3)	1	ambion single siRNA	0.0023	-0.949
Irx3 (Iroquois related homeobox 3)	2	ambion single siRNA	0.932	2.1
Irx3 (Iroquois related homeobox 3)	3	ambion single siRNA	-2.84 (active)	-3.04
Irx3 (Iroquois related homeobox 3)	4	qiagen single siRNA	0.311	0.0844
Irx3 (Iroquois related homeobox 3)	5	qiagen single siRNA	1.69	1.69
Irx3 (Iroquois related homeobox 3)	6	qiagen single siRNA	-3.01 (active)	-2.32
Syn2 (synapsin II)	1	ambion single siRNA	2.59 (active)	3.63
Syn2 (synapsin II)	2	ambion single siRNA	1.28	3.53
Syn2 (synapsin II)	3	ambion single siRNA	0.772	1.62
Syn2 (synapsin II)	4	qiagen single siRNA	3.77 (active)	4.11
Syn2 (synapsin II)	5	qiagen single siRNA	-3.24 (active)	-3.24
Syn2 (synapsin II)	6	qiagen single siRNA	1.3	0.815
Bmp2 (bone morphogenetic protein 2)	1	ambion single siRNA	-2.35 (active)	-2.87
Bmp2 (bone morphogenetic protein 2)	2	ambion single siRNA	-0.856	-1.71
Bmp2 (bone morphogenetic protein 2)	3	ambion single siRNA	-1.83	-2.17
Bmp2 (bone morphogenetic protein 2)	4	qiagen single siRNA	2.62 (active)	1.82
Bmp2 (bone morphogenetic protein 2)	5	qiagen single siRNA	1.79	-0.371
Bmp2 (bone morphogenetic protein 2)	6	qiagen single siRNA	-1.71	-1.11
Pcolce2 (procollagen C-endopeptidase enhancer 2)	1	ambion single siRNA	-3.67 (active)	-4.72
Pcolce2 (procollagen C-endopeptidase enhancer 2)	2	ambion single siRNA	-0.0581	-0.801
Pcolce2 (procollagen C-endopeptidase enhancer 2)	3	ambion single siRNA	0.0958	0.614
Pcolce2 (procollagen C-endopeptidase enhancer 2)	4	qiagen single siRNA	-0.34	0.255
Pcolce2 (procollagen C-endopeptidase enhancer 2)	5	qiagen single siRNA	2.25 (active)	0.477
Pcolce2 (procollagen C-endopeptidase enhancer 2)	6	qiagen single siRNA	1.23	-1.18
Eloc (elongin C)	1	ambion single siRNA	-1.93	-0.824
Eloc (elongin C)	2	ambion single siRNA	-3.68 (active)	-3.94
Eloc (elongin C)	3	ambion single siRNA	-3.72 (active)	-1.61
Eloc (elongin C)	4	qiagen single siRNA	-1.98	-1.39
Eloc (elongin C)	5	qiagen single siRNA	-0.0145	-1.13
Eloc (elongin C)	6	qiagen single siRNA	-0.157	1.08
Supt6 (SPT6, histone chaperone and transcription elongation factor)	1	ambion single siRNA	1.05	2.19
Supt6 (SPT6, histone chaperone and transcription elongation factor)	2	ambion single siRNA	-0.435	-0.553
Supt6 (SPT6, histone chaperone and transcription elongation factor)	3	ambion single siRNA	-4.58 (active)	-3.32
Supt6 (SPT6, histone chaperone and transcription elongation factor)	4	qiagen single siRNA	-7.23 (active)	-7.23
Supt6 (SPT6, histone chaperone and transcription elongation factor)	5	qiagen single siRNA	-6.53 (active)	-6.53
Supt6 (SPT6, histone chaperone and transcription elongation factor)	6	qiagen single siRNA	-4.99 (active)	-4.99
Cryba4 (crystallin, beta A4)	1	ambion single siRNA	1.83	1.62
Cryba4 (crystallin, beta A4)	2	ambion single siRNA	-3.39 (active)	-3.39
Cryba4 (crystallin, beta A4)	3	ambion single siRNA	-1.47	-2.23
Cryba4 (crystallin, beta A4)	4	qiagen single siRNA	1.89	1.13
Cryba4 (crystallin, beta A4)	5	qiagen single siRNA	-3.75 (active)	-2.72
Cryba4 (crystallin, beta A4)	6	qiagen single siRNA	-1.9	-0.452

Entries listed so far whose gene name begins with B or b:
Gene	siRNA no.	siRNA vendor or control pool	p65 translocation z-score, replicate mean	p65 translocation z-score, replicate 1
Bmp2 (bone morphogenetic protein 2)	1	ambion single siRNA	-2.35 (active)	-2.87
Bmp2 (bone morphogenetic protein 2)	2	ambion single siRNA	-0.856	-1.71
Bmp2 (bone morphogenetic protein 2)	3	ambion single siRNA	-1.83	-2.17
Bmp2 (bone morphogenetic protein 2)	4	qiagen single siRNA	2.62 (active)	1.82
Bmp2 (bone morphogenetic protein 2)	5	qiagen single siRNA	1.79	-0.371
Bmp2 (bone morphogenetic protein 2)	6	qiagen single siRNA	-1.71	-1.11
